Assay results published in PubChem BioAssay AID2685 (National Center for Advancing Translational Sciences (NCATS), 2010).
Among all 320,000 compounds or so, about 2,100 (0.66%) were called active. Inconclusive results, whose numbers are uncertain, are shown with a selection of clear calls. Calls follow the shape of the dose curve; as a rule, active = well fitted inhibition curve with a large enough effect in the signal ratio, with a control signal flat (not every such curve was filed as active); inconclusive = small, poorly fitted or top-dose-only effect, or effect the other way, or a change in a side signal; inactive = flat fitted curve, though single readings scatter; the % refers to the signal ratio. Potencies of inconclusive entries are doubtful fits and often do not repeat.

Experiment: qHTS Assay for Lipid Storage Modulators in Drosophila S3 Cells
Conditions: BODIPY lipid droplet fluorescence, 18-24 h, cells fed with added oleic acid; lipid storage change, negative = inhibition: at 46.1 µM (top of the series) unless noted
In short: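 Drosophila S3 cells loaded with oleic acid (400 uM, as added) and compounds at several concentrations; lipid droplets imaged by 488-nm laser-scanning cytometry, 500–530 nm intensity and object ratio to cell channel. Percent activity normalized to 20 uM Triacsin C.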
% is scaled to controls: 0 for no effect and ±100 for the full control effect; potency is read from the fitted curve at half-maximal effect.

Compound	Potency	lipid storage change, negative = inhibition
CC(=O)Nc1ccc(NC(=O)c2cc(S(=O)(=O)N3CCCCC3)ccc2C)cc1	inconclusive: 29.1 µM [activator, single point]	–
COc1cccc(CC(NC(C)=O)C(=O)NC2CCN(C(=O)C3CCCCC3)CC2)c1OC (stereo not drawn)	–	inconclusive: 8.28%
CCC(=O)NCCCc1nc2ccccc2n1Cc1ccccc1F	–	inconclusive: -7.76%
COc1ccc(S(=O)(=O)N2CCCCCC2)cc1C(=O)N(C)Cc1cccs1	inconclusive: 6.51 µM [falling, single point]	–
O=C(N/N=C/c1ccc([N+](=O)[O-])o1)c1ccncc1	inconclusive: 18.4 µM [falling, partial curve]	–
O=C(O/N=C\c1ccc(N2CCOCC2)c([N+](=O)[O-])c1)c1ccc(F)cc1	–	inconclusive: -1.7%
Cc1cccc(C2Nc3cccc4cccc(c34)N2)c1	–	inconclusive: 17.3%
O=C(CNC(=O)c1ccc(F)cc1)NCc1ccccn1	–	inconclusive: 12.1%
CCCCC(=O)N(c1ccc(OC)cc1)C1C=CS(=O)(=O)C1 (stereo not drawn)	inconclusive: 0.82 µM [falling, partial curve]	–
Cc1nc2ccccc2nc(C)c1=NOCc1ccccc1Cl	–	inconclusive: 17.4%
COc1ccccc1NC(=O)C(C)NS(=O)(=O)c1ccc(Cl)cc1 (stereo not drawn)	active: 6.51 µM	–
CC1CCN(C2(O)C(=O)Nc3ccc(Cl)cc32)CC1 (stereo not drawn)	–	inconclusive: 94.6%
O=C(NCc1cccs1)C1CCCN1C(=O)Nc1ccc(Cl)cc1 (stereo not drawn)	–	inconclusive: 31.3%
O=C(c1ccc(=O)[nH]c1)N1CCN(S(=O)(=O)c2ccccc2)CC1	–	inconclusive: -6.77%
Cc1[nH]n(-c2ccccc2)c(=O)c1C(c1ccc(C(=O)O)cc1)c1c(C)[nH]n(-c2ccccc2)c1=O	–	inconclusive: 5%
Cc1cc(F)ccc1S(=O)(=O)N1CCCOC1CNC(=O)C(=O)NCc1cccnc1 (stereo not drawn)	inconclusive: 3.66 µM [activator, partial curve]	–
O=S(=O)(c1ccc(NCCOc2ccccc2)nc1)N1CCCC1	–	inconclusive: 25.8%
Cc1cccc(NC(=O)CSc2cccc3cccnc23)c1C	–	inconclusive: -46.4%
C=C(C(=O)c1ccccc1)C(C)CC(=O)c1ccccc1 (stereo not drawn)	inconclusive: 29.1 µM [falling, single point]	–
CCC(C)n1c(SCC(=O)NC2CCS(=O)(=O)C2)nc2ccccc2c1=O (stereo not drawn)	–	inconclusive: -1.66%
COc1cccc(CNCc2ccc3c(c2)OCO3)c1	inconclusive: 4.11 µM [activator, partial curve]	–
CCN(CC)c1c([N+](=O)[O-])c(=O)n(CC)c2ccccc12	–	inconclusive: -24.7%
COc1ccc(NC(=O)CN(C)CC(=O)Nc2sc3c(c2C#N)CCC3)cc1	–	inconclusive: -44.3%
COCCNC(=O)CN1C(=O)CC(C)(C)S(=O)(=O)c2ccccc21	–	inconclusive: -33.9%
CC1=C(C(=O)NCc2ccccc2)C(c2ccccc2OCC(N)=O)NC(=O)N1 (stereo not drawn)	inconclusive: 32.6 µM [falling, single point]	–
O=C(N/N=C/c1c[nH]c2ccccc12)c1cc2ccccc2o1	–	inconclusive: 0.728%

Compound	Potency	lipid storage change, negative = inhibition
Cc1cccc(C(=O)N2CCCC(CCC(=O)N3CCN(c4ccccn4)CC3)C2)c1 (stereo not drawn)	inconclusive: 0.58 µM [activator, single point]	–
CCN1CCN(S(=O)(=O)c2ccc(Cl)c(C(=O)N(C)C(c3ccccc3)c3ccccc3)c2)CC1	–	inactive
O=C(CCN1C(=O)[C@@H]2Cc3ccccc3CN2C1=O)N[C@@H](C(=O)O)c1ccccc1	inconclusive: 2.91 µM [activator, partial curve]	–
CC(NC(=O)c1ccc(Br)cc1)C(=O)NC1=NCCS1 (stereo not drawn)	–	inactive: -5.54% [at 9.22 µM]
Cc1ccc(S(=O)(=O)NCC(=O)OCC(=O)NCc2cccs2)cc1	–	inconclusive: 2.4%
Cc1ccc(NC(=O)COc2ccccc2[N+](=O)[O-])nc1	–	inconclusive: -9.28%
Cc1cc(Br)ccc1OCCn1ccnc1	–	inconclusive: 13.9%
CC(=O)N1CCN(C(=O)c2ccc(Cl)c(NC(=O)c3cccs3)c2)CC1	–	inconclusive: 31.7%
COc1ccc(/C=N/NC(=O)c2ccco2)cc1Cn1nc(C)cc1C	inconclusive: 11.6 µM [activator, partial curve, poor fit]	–
CCCn1c(C(C)Nc2nc(-c3ccc(Cl)c([N+](=O)[O-])c3)cs2)nc2cc(Cl)c(N3CCCCC3)cc21 (stereo not drawn)	–	inconclusive: 341%
Cc1ccc(C(=O)Nc2nc3ccccc3n3nnnc23)cc1	–	inconclusive: -16.6%
O=C(CCN1C(=O)C2CCCCC2C1=O)Nc1nc(-c2ccccc2)cs1 (stereo not drawn)	–	inconclusive: 5.98%
Cc1cc(C)c(S(=O)(=O)Nc2cccc(S(=O)(=O)N3CCOCC3)c2)c(C)c1	inconclusive: 5.8 µM [falling, partial curve]	–
CC1CC(C)CN(C(=O)c2ccc3ncsc3c2)C1 (stereo not drawn)	–	inconclusive: 4.36%
CCOC(=O)C1CCN(c2ccc(-c3cccs3)nn2)CC1	–	inconclusive: 10.4%
Cc1cc(C)cc(-n2c(C)cc(/C=N/NC(=O)CSc3ncccn3)c2C)c1	–	inconclusive: 0.891%
CC(Oc1ccc(F)cc1)C(O)CCN(C)C (stereo not drawn)	–	inconclusive: -63.3%
COc1ccc(NC(=O)CSc2nc3c(c(=O)n2-c2ccccc2)SCC3)c(OC)c1	inconclusive: 6.51 µM [activator, full curve]	–
COCCNC(=O)CSc1nc2ccccc2c(=O)n1CCCC(=O)NCc1ccccc1	inconclusive: 0.411 µM [activator, full curve, poor fit]	–
CC(C)Cc1nnc(NC(=O)CCC(=O)NC2CCCc3ccccc32)s1 (stereo not drawn)	–	inconclusive: 10%
Cn1cccc1C(=O)NNC(=O)c1ccccc1Br	inconclusive: 29.1 µM [rising, single point]	–
O=C(COc1ccccc1)OCC(=O)c1ccc(O)cc1O	–	inconclusive: -0.77%
CCOC(=O)COc1ccc(S(=O)(=O)NCc2ccco2)cc1	inconclusive: 25.9 µM [falling, single point]	–
COc1ccc([N+](=O)[O-])cc1COc1cc(C)cc2oc(=O)cc(-c3ccccc3)c12	–	inconclusive: 20.4%
O=C(CSc1nnc(COc2cccc3cccnc23)o1)N1CCc2ccccc21	–	inconclusive: 9.89%
COCCCn1c(=O)/c(=C\c2ccccc2OC(C)C)s/c1=C(/C#N)C(=O)Nc1ccc(C(=O)O)cc1	inconclusive: 29.1 µM [falling, single point]	–

Copied from the entries so far (6 entries):
Compound	Potency	lipid storage change, negative = inhibition
COCCNC(=O)CSc1nc2ccccc2c(=O)n1CCCC(=O)NCc1ccccc1	inconclusive: 0.411 µM [activator, full curve, poor fit]	–
CC(C)Cc1nnc(NC(=O)CCC(=O)NC2CCCc3ccccc32)s1 (stereo not drawn)	–	inconclusive: 10%
Cn1cccc1C(=O)NNC(=O)c1ccccc1Br	inconclusive: 29.1 µM [rising, single point]	–
O=C(COc1ccccc1)OCC(=O)c1ccc(O)cc1O	–	inconclusive: -0.77%
CCOC(=O)COc1ccc(S(=O)(=O)NCc2ccco2)cc1	inconclusive: 25.9 µM [falling, single point]	–
COc1ccc([N+](=O)[O-])cc1COc1cc(C)cc2oc(=O)cc(-c3ccccc3)c12	–	inconclusive: 20.4%

Further compounds follow.

Compound	Potency	lipid storage change, negative = inhibition
CCOc1ccc2nc(NC(=O)c3ccc(OCC4CCCO4)cc3)sc2c1 (stereo not drawn)	inconclusive: 18.4 µM [cytotoxic, single point]	–
O=C(CN1CCCc2ccccc21)NC(=O)NC1CCCCC1	–	inconclusive: 7.94%
CC1CCC(NC(=O)c2cc(S(=O)(=O)N(C)C)ccc2N2CCCC2)CC1 (stereo not drawn)	–	inconclusive
CC(C)[C@H](NS(=O)(=O)c1ccc2c(c1)OCCO2)C(=O)OCC(=O)Nc1ccccc1	–	inconclusive: 27.5%
O=C(Cc1ccc(Br)cc1)Nc1cccc(-c2cn3c(n2)SCC3)c1	–	inconclusive: 19.4%
CCn1c(SCC(=O)Nc2nc3ccccc3s2)nc2c(c1=O)SC(C)C2 (stereo not drawn)	–	inconclusive: -22%
CCOc1ccc(N2CC(C(=O)Nc3cccnc3)CC2=O)cc1 (stereo not drawn)	–	inconclusive: -16.8%
COc1ccc(CNC(=O)C(CC(C)C)NC(=O)c2ccccc2C)cc1 (stereo not drawn)	–	inconclusive: 102%
Cc1ccsc1C(=O)NNC(=O)c1cccc(S(=O)(=O)N2CCCC2)c1	inconclusive: 9.2 µM [falling, partial curve]	–
CC(C)(C)C(=O)N1CCN(c2ccnc3cc(Cl)ccc23)CC1	inconclusive: 8.2 µM [falling, partial curve]	–
Cc1cccc(N2CCN(C(=O)c3ccc4c(c3)OCCO4)CC2C)c1 (stereo not drawn)	inconclusive: 0.116 µM [cytotoxic, full curve]	–
Cc1ccccc1NC(=O)c1cccc(C(F)(F)F)c1	–	inconclusive: -34.2%
COC(=O)c1nc(NC(=O)c2ccc(C(C)(C)C)cc2)n[nH]1	–	inconclusive: -19.6%
Cc1cc(Cl)c(OCCOCCN2CCCC(C)C2)c(Br)c1 (stereo not drawn)	–	inconclusive: 14.6%
CCOC(=O)CN1C(=O)CSc2ccc(S(=O)(=O)N3CCCC3)cc21	–	inconclusive: 15.2%
OCCNc1nc(NCCC2=CCCCC2)nc(N2CCOCC2)n1	–	inconclusive: -21.2%
N/C(CCS(=O)(=O)c1ccc(Cl)cc1)=N\OC(=O)c1ccc(Cl)cc1	inconclusive: 0.13 µM [falling, full curve, poor fit]	–
O=S(=O)(c1ccc(Cl)nc1)N1CCCCC1	–	inconclusive: -14.4%
c1cncc(-c2nn3c(Cn4nnc5ccccc54)nnc3s2)c1	inconclusive: 4.11 µM [falling, partial curve, poor fit]	–
Cc1ccc(NC2=NCCCCC2)cc1C	–	inconclusive: 15.2%
O=C(/C=C/c1ccc(S(=O)(=O)N2CCOCC2)cc1)NC(=S)Nc1ccc(Cl)cc1Cl	–	inconclusive: -63.1%
Cn1c(CNC(=O)c2ccccc2F)nnc1SCCOc1ccccc1	–	inconclusive: -92.5%
Cc1cc2c(cc(C(=O)NCc3cccnc3)n2Cc2ccc(Cl)cc2)o1	–	inconclusive: 0.0176%
CCOC(=O)N1CCC(N(CCN(C)C)C(=S)Nc2ccc(OCC)cc2)CC1	–	inconclusive: -5.64%
C1COCCNCCOCCOCCN1	–	inconclusive: 3.44%
CCC(=O)c1ccc(OC(=O)c2cnccn2)cc1	–	inconclusive: 47.4%
